Measured values: publication doi:10.1101/2022.12.10.519866 (bioRxiv, 2022)
These are yes or no findings as the source states them, for the method shown. Binding seen in cells or lysates may run through a third protein. Here binding means that the protein was enriched with, or labelled near, the bait; the list need not be complete.

Protein sequences, listed by entry. Tags and fused reporters are not part of them.
UniProt O88738: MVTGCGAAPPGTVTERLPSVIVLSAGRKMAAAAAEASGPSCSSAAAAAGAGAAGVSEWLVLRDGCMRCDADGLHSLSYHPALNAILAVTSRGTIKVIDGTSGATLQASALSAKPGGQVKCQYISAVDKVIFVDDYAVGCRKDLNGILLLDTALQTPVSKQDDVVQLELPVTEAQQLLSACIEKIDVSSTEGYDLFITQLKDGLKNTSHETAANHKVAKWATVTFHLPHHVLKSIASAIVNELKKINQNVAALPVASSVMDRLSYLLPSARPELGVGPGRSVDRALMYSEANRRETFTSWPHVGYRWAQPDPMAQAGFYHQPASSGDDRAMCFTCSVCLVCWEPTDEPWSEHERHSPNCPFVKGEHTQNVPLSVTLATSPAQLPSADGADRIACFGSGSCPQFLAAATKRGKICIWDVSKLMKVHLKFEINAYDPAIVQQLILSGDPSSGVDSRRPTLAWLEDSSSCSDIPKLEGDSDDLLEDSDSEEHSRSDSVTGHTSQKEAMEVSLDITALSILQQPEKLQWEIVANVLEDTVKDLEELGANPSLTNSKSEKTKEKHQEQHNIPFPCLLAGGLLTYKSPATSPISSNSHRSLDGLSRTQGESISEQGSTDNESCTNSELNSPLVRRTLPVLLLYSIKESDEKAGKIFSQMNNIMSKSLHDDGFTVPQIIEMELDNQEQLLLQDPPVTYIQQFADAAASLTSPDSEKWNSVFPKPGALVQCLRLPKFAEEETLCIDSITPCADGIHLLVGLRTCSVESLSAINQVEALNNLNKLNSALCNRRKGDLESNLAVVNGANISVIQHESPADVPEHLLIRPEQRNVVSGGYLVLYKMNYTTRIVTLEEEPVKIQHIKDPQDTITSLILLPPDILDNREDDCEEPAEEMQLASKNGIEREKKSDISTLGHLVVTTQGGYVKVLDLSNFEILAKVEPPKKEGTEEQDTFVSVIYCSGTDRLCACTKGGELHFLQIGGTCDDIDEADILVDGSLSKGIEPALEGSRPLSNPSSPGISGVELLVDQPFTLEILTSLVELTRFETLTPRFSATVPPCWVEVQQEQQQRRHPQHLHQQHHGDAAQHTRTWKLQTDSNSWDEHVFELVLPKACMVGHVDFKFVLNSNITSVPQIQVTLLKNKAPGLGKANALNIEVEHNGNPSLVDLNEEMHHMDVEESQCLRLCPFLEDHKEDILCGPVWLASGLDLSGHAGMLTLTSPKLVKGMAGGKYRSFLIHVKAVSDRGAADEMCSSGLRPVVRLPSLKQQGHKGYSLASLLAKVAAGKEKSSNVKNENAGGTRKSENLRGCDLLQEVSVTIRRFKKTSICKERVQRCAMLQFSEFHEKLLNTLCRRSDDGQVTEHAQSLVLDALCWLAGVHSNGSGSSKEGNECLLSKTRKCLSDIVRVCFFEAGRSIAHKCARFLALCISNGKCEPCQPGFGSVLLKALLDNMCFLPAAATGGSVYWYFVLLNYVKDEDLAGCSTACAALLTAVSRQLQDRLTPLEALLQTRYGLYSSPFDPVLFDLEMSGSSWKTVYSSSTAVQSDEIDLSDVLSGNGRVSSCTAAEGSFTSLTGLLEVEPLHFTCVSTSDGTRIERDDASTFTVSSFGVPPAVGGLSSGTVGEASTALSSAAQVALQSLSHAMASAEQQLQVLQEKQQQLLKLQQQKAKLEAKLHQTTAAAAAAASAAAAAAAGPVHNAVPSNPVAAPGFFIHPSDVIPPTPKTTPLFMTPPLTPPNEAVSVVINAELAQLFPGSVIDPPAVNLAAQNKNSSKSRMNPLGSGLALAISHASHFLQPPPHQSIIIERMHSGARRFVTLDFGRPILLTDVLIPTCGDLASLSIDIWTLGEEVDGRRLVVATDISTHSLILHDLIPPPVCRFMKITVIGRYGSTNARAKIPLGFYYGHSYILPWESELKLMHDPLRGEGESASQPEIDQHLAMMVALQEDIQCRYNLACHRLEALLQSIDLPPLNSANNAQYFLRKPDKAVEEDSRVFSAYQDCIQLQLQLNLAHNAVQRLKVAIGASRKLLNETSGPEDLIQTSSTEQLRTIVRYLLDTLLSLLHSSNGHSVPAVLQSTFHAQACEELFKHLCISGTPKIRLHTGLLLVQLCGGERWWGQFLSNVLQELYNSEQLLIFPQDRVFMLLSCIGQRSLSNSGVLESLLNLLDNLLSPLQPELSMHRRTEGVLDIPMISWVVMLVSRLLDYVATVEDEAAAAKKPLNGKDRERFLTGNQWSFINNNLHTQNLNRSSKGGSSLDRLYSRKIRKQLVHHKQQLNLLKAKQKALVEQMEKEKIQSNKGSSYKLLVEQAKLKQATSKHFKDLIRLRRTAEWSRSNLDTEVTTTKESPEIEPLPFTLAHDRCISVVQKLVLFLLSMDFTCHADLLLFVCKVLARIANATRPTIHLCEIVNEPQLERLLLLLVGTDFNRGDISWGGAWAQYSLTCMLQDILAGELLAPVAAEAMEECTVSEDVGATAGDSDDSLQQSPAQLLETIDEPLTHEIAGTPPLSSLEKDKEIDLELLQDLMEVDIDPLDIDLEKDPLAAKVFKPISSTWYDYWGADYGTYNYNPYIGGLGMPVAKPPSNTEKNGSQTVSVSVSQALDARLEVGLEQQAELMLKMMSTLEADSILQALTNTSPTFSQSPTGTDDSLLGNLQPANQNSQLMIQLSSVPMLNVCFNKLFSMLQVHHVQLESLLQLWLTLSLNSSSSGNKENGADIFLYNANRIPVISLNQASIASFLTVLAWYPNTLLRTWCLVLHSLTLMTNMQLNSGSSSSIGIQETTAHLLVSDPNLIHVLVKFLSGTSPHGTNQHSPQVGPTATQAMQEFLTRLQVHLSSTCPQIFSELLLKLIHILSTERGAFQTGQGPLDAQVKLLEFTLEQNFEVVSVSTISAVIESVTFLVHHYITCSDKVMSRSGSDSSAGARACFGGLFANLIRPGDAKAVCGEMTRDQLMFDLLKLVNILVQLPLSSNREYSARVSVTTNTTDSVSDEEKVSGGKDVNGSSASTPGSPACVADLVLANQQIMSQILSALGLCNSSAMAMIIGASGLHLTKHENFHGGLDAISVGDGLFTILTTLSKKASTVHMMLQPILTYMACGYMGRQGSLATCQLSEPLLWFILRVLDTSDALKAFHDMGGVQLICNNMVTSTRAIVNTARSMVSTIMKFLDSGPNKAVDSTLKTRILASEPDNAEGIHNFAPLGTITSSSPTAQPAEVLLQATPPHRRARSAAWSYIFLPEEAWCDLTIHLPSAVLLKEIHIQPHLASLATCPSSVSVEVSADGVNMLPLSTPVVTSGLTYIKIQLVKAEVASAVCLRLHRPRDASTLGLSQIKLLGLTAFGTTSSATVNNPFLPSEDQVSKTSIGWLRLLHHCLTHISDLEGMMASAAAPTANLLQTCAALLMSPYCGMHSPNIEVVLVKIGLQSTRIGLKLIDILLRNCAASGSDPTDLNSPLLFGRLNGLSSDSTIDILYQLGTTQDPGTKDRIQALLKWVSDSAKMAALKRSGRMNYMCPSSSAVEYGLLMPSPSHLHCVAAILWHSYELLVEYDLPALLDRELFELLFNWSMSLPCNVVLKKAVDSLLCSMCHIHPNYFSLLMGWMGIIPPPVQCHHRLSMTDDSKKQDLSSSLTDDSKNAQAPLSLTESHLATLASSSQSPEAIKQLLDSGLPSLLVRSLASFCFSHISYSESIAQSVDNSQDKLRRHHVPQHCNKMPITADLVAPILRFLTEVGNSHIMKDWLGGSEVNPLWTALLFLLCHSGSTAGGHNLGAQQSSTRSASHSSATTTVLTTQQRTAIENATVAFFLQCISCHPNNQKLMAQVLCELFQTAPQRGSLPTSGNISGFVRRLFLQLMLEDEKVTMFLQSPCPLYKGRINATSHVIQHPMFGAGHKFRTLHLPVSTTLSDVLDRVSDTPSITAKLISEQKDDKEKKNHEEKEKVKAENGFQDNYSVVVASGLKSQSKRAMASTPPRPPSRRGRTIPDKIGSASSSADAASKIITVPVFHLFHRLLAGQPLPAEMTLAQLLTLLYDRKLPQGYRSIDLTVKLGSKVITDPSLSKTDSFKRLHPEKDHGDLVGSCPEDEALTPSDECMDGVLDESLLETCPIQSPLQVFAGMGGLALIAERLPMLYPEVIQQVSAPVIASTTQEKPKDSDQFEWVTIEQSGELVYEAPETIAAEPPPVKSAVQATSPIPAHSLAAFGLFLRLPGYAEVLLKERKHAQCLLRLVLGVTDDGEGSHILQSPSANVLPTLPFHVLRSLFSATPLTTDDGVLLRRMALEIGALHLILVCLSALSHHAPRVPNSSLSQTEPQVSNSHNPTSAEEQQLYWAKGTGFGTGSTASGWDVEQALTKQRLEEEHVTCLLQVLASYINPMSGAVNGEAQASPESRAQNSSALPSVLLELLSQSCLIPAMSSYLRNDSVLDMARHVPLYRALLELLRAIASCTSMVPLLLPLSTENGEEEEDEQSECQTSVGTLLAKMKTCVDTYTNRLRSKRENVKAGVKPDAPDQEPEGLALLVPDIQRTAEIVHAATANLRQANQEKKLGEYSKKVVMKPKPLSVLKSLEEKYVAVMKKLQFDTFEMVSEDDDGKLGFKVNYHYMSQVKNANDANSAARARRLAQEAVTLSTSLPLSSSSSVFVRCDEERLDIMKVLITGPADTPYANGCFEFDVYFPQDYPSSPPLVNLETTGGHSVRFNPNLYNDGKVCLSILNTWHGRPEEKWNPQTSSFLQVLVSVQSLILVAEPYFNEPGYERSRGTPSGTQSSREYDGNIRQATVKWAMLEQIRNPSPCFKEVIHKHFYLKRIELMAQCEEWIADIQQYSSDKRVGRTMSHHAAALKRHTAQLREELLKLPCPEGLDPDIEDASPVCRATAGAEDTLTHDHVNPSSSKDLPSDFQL

Biological target: 3×FLAG-tagged full-length mouse BIRC6 (mouse, UniProt O88738 1-4882)
Experiment: affinity purification with mass spectrometry

binding	Binder
binds	Nrdp1, endogenous in HEK293F cells (enzyme, UniProt Q9H4P4 1-317) MGYDVTRFQGDVDEDLICPICSGVLEEPVQAPHCEHAFCNACITQWFSQQQTCPVDRSVVTVAHLRPVPRIMRNMLSKLQIACDNAVFGCSAVVRLDNLMSHLSDCEHNPKRPVTCEQGCGLEMPKDELPNHNCIKHLRSVVQQQQTRIAELEKTSAEHKHQLAEQKRDIQLLKAYMRAIRSVNPNLQNLEETIEYNEILEWVNSLQPARVTRWGGMISTPDAVLQAVIKRSLVESGCPASIVNELIENAHERSWPQGLATLETRQMNRRYYENYVAKRIPGKQAVVVMACENQHMGDDMVQEPGLVMIFAHGVEEI
binds	caspase 7, endogenous in HEK293F cells (enzyme, UniProt P55210 1-303) MADDQGCIEEQGVEDSANEDSVDAKPDRSSFVPSLFSKKKKNVTMRSIKTTRDRVPTYQYNMNFEKLGKCIIINNKNFDKVTGMGVRNGTDKDAEALFKCFRSLGFDVIVYNDCSCAKMQDLLKKASEEDHTNAACFACILLSHGEENVIYGKDGVTPIKDLTAHFRGDRCKTLLEKPKLFFIQACRGTELDDGIQADSGPINDTDANPRYKIPVEADFLFAYSTVPGYYSWRSPGRGSWFVQALCSILEEHGKDLEIMQILTRVNDRVARHFESQSDDPHFHEKKQIPCVVSMLTKELYFSQ
binds	caspase 6, endogenous in HEK293F cells (enzyme, UniProt P55212 1-293) MSSASGLRRGHPAGGEENMTETDAFYKREMFDPAEKYKMDHRRRGIALIFNHERFFWHLTLPERRGTCADRDNLTRRFSDLGFEVKCFNDLKAEELLLKIHEVSTVSHADADCFVCVFLSHGEGNHIYAYDAKIEIQTLTGLFKGDKCHSLVGKPKIFIIQACRGNQHDVPVIPLDVVDNQTEKLDTNITEVDAASVYTLPAGADFLMCYSVAEGYYSHRETVNGSWYIQDLCEMLGKYGSSLEFTELLTLVNRKVSQRRVDFCKDPSAIGKKQVPCFASMLTKKLHFFPKSN
